{"source": "PubChem BioAssay AID1259424 (University of Nebraska Medical Center, 2018)", "screen": "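Find knockdowns that reproduce the expression shifts seen after KSR1 loss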 (primary screen)", "cell system": "human HCT116 colon cancer cells", "reagent": "siRNA pool against human genes, 50 nM", "measured": "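Log2 levels of six mRNAs (branched-DNA multiplex), adjusted by two reference genes and the non-targeting median, then scored against the average KSR1 knockdown pattern as Pearson r and euclidean distance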", "scale": "mean correlation with KSR1 profile: higher = expression change more like KSR1 knockdown", "note": "The deposit covers about 14,000 reagents; below is an unselected part. 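Higher correlation or smaller distance means closer resemblance to KSR1 loss; control wells, including KSR1 knockdowns, recur on many plates.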 Not all columns of the deposit are shown. Reagent sequences are not shown. Not given: the time to read-out."}
{"gene symbol": "ALLC", "mean correlation with KSR1 profile": 0.782}
{"gene symbol": "SGCD", "mean correlation with KSR1 profile": -0.317}
{"gene symbol": "CYSTM1", "mean correlation with KSR1 profile": 0.598}
{"gene symbol": "S100G", "mean correlation with KSR1 profile": 0.0673}
{"gene symbol": "ZNF337", "mean correlation with KSR1 profile": -0.334}
{"gene symbol": "RPL15", "mean correlation with KSR1 profile": 0.394}
{"gene symbol": "GABRP", "mean correlation with KSR1 profile": -0.465}
{"gene symbol": "P4HA1", "mean correlation with KSR1 profile": 0.601}
{"gene symbol": "LYPLA1", "mean correlation with KSR1 profile": -0.379}
{"gene symbol": "CFP", "mean correlation with KSR1 profile": -0.0887}
{"gene symbol": "SMPDL3B", "mean correlation with KSR1 profile": -0.519}
{"gene symbol": "MDFIC", "mean correlation with KSR1 profile": 0.0138}

A few values from the entries so far.
For “mean correlation with KSR1 profile”, SMPDL3B shows -0.519
RPL15, mean correlation with KSR1 profile = 0.394
